The other results are listed elsewhere or left out. Single values are uncertain here, since repeats match poorly.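 Flies heterozygous for the ATM8 allele over a balancer chromosome carrying normal ATM were mated with each other on treated food. Parents laid eggs for 5–6 days and the young then developed for about 12 days, so both parents and larvae ate the compound. The read-out is the share of all emerged adults that carry two ATM8 copies, compared with 2% DMSO control vials. The paper called compounds neutral at 10–20% such offspring, harmful below 10%, and helpful above 20%.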
These molecules were tested on Drosophila melanogaster ATM8 (temperature-sensitive ATM allele) (assay: fraction of eclosed F1 progeny that are homozygous ATM8 (rescue of developmental lethality); higher = more rescue of ATM8 developmental lethality; extreme values may be limits of the assay). Conditions: compound concentration applied to food 0.2 mM; 21 °C.

Row | SMILES | fraction of eclosed F1 progeny that are homozygous ATM8
1 | COc1cc(O)c(C)c(O)c1 | 0.115
2 | OCC(O)C(O)C(O)C(O)C(O)CO (centres undefined) | 0.0349
3 | O=C(O)Cc1cnc[nH]1 | 0.0789
4 | COc1cc([C@@H]2c3cc4c(cc3[C@H](OC(C)=O)[C@H]3COC(=O)[C@@H]23)OCO4)cc(OC)c1OC | 0.128
5 | C[C@]12CC[C@@H]3c4ccc(O)cc4CC[C@H]3[C@@H]1C[C@H](O)[C@@H]2O | 0.197
6 | CCC1NC(=O)c2cc(S(N)(=O)=O)c(Cl)cc2N1 (centres undefined) | 0.113
7 | CNCC(O)c1ccc(O)cc1 (centres undefined) | 0.186
8 | CC(O)(P(=O)(O)O)P(=O)(O)O | 0.341
9 | CCc1ccc2c(O)c3c(cc2c1C(=O)OC)C(=O)c1c(O)ccc(O)c1C3=O | 0.116
10 | O=C(O)COCCN1CCN([C@H](c2ccccc2)c2ccc(Cl)cc2)CC1 | 0.3
11 | O=C1[C@H](CC[C@H](O)c2ccc(F)cc2)[C@@H](c2ccc(O)cc2)N1c1ccc(F)cc1 | 0.326
12 | CC(=O)O[C@H]1C[C@@H](OC(C)=O)C(C)(C)[C@@H]2C[C@@H](OC(C)=O)[C@@]3(C)C4=CC(=O)O[C@@H](c5ccoc5)[C@]4(C)CC[C@@H]3[C@@]12C | 0.133
13 | O=S(=O)(O)c1cc(I)c(O)c2ncccc12 | 0.197
14 | CN1CCOC(c2ccccc2)c2ccccc2C1 (centres undefined) | 0.116
15 | N=C(N)NCCCCN | 0.208
16 | CN1CCC(=C2c3ccccc3CCc3sccc32)CC1 | 0.0984
17 | COc1cc2occ(-c3ccccc3)c(=O)c2c(OC)c1C | 0.0323
18 | CN[C@@H]1[C@@H](O)[C@@H](O[C@@H]2[C@@H](O)[C@H](O[C@H]3O[C@H]([C@@H](C)O)[C@@H](O)[C@H](O)[C@H]3N)[C@@H](N)C[C@H]2N)OC[C@]1(C)O | 0.119
19 | CC1(C)CC[C@]2(C(=O)O)CC[C@]3(C)C(=CCC4[C@@]5(C)CC[C@@H](O)C(C)(C)C5CC[C@]43C)C2C1 (some centres undefined) | 0.122
20 | CCN(CC)CCOc1ccc(C(=C(Cl)c2ccccc2)c2ccccc2)cc1 | 0.075
21 | CCCCCOC(=O)Nc1nc(=O)n([C@@H]2O[C@H](C)[C@@H](O)[C@H]2O)cc1F | 0.107
22 | CCCCNc1ccc(C(=O)OCCN(C)C)cc1 | 0.15
23 | C[C@@H]1CC[C@@]23CCC4(C)[C@@](C=CC5[C@@]6(C)CCC(=O)C(C)(C)C6CC[C@]54C)(OC2=O)C3[C@H]1C (some centres undefined) | 0
24 | NC(=O)NC1NC(=O)NC1=O (centres undefined) | 0.14
25 | CC/C=C\CC1=C(C)CCC1=O | 0.111
26 | CN(C)CCOC(c1ccc(Cl)cc1)c1ccccn1 (centres undefined) | 0.0303

Row | SMILES | fraction of eclosed F1 progeny that are homozygous ATM8
27 | O=C1CCc2ccc(OCCCCN3CCN(c4cccc(Cl)c4Cl)CC3)cc2N1 | 0
28 | COc1c2ccoc2cc2oc(=O)ccc12 | 0.105
29 | Cc1ccccc1C(OCCN(C)C)c1ccccc1 (centres undefined) | 0.439
30 | O=C1C(O)=C([C@H]2CC[C@H](c3ccc(Cl)cc3)CC2)C(=O)c2ccccc21 | 0.235
31 | CC(C)C[C@H]1C(=O)N2CCC[C@H]2[C@]2(O)O[C@](NC(=O)[C@@H]3C=C4c5cccc6[nH]c(Br)c(c56)C[C@H]4N(C)C3)(C(C)C)C(=O)N12 | 0.122
32 | CN1[C@@H]2CC[C@H]1C[C@@H](OC(=O)C(CO)c1ccccc1)C2 (some centres undefined) | 0.0889
33 | COC(=O)C1=C(C)NC(C)=C(C(=O)OCCN(C)Cc2ccccc2)C1c1cccc([N+](=O)[O-])c1 (centres undefined) | 0.25
34 | CC(C)=CCc1c2c(c3occ(-c4ccc(O)cc4)c(=O)c3c1O)C=CC(C)(C)O2 | 0.093
35 | CN1CCN(c2c(F)cc3c(=O)c(C(=O)O)cn4c3c2SCC4)CC1 | 0.0833
36 | COC(=O)C1=C(C)NC(C)=C(C(=O)OCC(C)C)C1c1ccccc1[N+](=O)[O-] (centres undefined) | 0.0426
37 | O=c1cc(-c2ccc(O)cc2)oc2cc(O)ccc12 | 0.125
38 | O=C(O)c1cccnc1C(=O)O | 0.0323
39 | CC(=O)Nc1ccc(C(=O)O)cc1 | 0.135
40 | O=C(O)c1ccccc1 | 0.0488
41 | CC(C)(C)CC(=O)OCC(=O)[C@@]1(O)CC[C@H]2[C@@H]3CCC4=CC(=O)C=C[C@]4(C)[C@H]3[C@@H](O)C[C@@]21C | 0.087
42 | CN1CCC[C@@H]1CCO[C@](C)(c1ccccc1)c1ccc(Cl)cc1 | 0.119
43 | CCOc1ccc(NC(C)=O)cc1 | 0.12
44 | CC(=O)O[C@H]1CC[C@]2(C)[C@H]3C(=O)C=C4[C@@H]5C[C@@](C)(C(=O)O)CC[C@]5(C)CC[C@@]4(C)[C@]3(C)CC[C@H]2C1(C)C | 0.115
45 | COc1cc(OC)c(-c2c(OC)cc(OC)cc2OC)c(OC)c1 | 0.244
46 | C#C[C@]1(O)CC[C@H]2[C@@H]3CCC4=C(CCC(=O)C4)[C@H]3CC[C@@]21C | 0.143
47 | CCOC(=O)[N-]c1c[n+](N2CCOCC2)no1 | 0
48 | CC[N+](CC)(CC)CCOc1cccc(OCC[N+](CC)(CC)CC)c1OCC[N+](CC)(CC)CC | 0.0816
49 | COc1ccc2c(c1)O[C@@H]1COc3cc(OC)c(OC)cc3[C@@H]1C2=O | 0.0909
50 | CC(C)(C)NCC(O)c1cc(O)cc(O)c1 (centres undefined) | 0.139
51 | COC1=C(CC=C(C)C)C(=O)c2ccccc2C1=O | 0.171
52 | CNC(C)(C)Cc1ccccc1 | 0.315

Row | SMILES | fraction of eclosed F1 progeny that are homozygous ATM8
53 | CCOP(=S)(OCC)Oc1cc(C)nc(C(C)C)n1 | 0.143
54 | CN[C@@H]1[C@H](O[C@H]2[C@H](O[C@H]3[C@H](O)[C@@H](O)[C@H](NC(=N)N)[C@@H](O)[C@@H]3NC(=N)N)O[C@@H](C)[C@]2(O)CO)O[C@@H](CO)[C@H](O)[C@H]1O | 0.087
55 | NCc1ccc(S(N)(=O)=O)cc1 | 0.279
56 | CCc1oc2ccccc2c1C(=O)c1cc(Br)c(O)c(Br)c1 | 0.25
57 | CC/C(=C(\c1ccccc1)c1ccc(OCCN(C)C)cc1)c1ccccc1 | 0.159
58 | COc1cc2oc3cc(OC)c(OC)c(CC=C(C)C)c3c(=O)c2c(OC)c1CC=C(C)C | 0.243
59 | O=c1c(O)c(-c2ccc(O)c(O)c2)oc2cc(O)cc(O)c12 | 0.0938
60 | CC(=O)Nc1cccc(O)c1 | 0.2
61 | Cc1cnc(C(=O)O)c[n+]1[O-] | 0.087
62 | O=C(O)C1(C(=O)O)CCC1.[NH2-].[NH2-].[Pt+2] | 0.114
63 | CC1=C(C/C=C(\C)CCC[C@H](C)CCC[C@H](C)CCCC(C)C)C(=O)c2ccccc2C1=O | 0.0833
64 | Cc1ncc(COP(=O)([O-])[O-])c(CN(CCN(CC(=O)O)Cc2c(COP(=O)([O-])O)cnc(C)c2O)CC(=O)O)c1O.[Mn].[Na+].[Na+].[Na+] | 0.222
65 | CC1CCCC(C)N1 (centres undefined) | 0.0893
66 | CC(C)(C)NC[C@H](O)COc1ccccc1C1CCCC1 | 0.05
67 | COc1ccc(C(=O)c2ccccc2O)c(O)c1 | 0.0968
68 | COCCc1ccc(OCC(O)CNC(C)C)cc1 (centres undefined) | 0.0417
69 | Nc1nc2[nH]cc(CCc3ccc(C(=O)N[C@@H](CCC(=O)O)C(=O)O)cc3)c2c(=O)[nH]1 | 0.0909
70 | COc1cc2c(cc1C=O)OCO2 | 0.0938
71 | OCc1ccccn1 | 0.315
72 | COc1ccc(CN2CCN(C(c3ccc(F)cc3)c3ccc(F)cc3)CC2)c(OC)c1OC | 0.0571
73 | CC(C)Cc1ccc(C(C)C(=O)O)cc1 (centres undefined) | 0.149
74 | C[C@@]1(O)CCOC(=O)C1 | 0.235
75 | CN1CCN(c2cc3c(cc2F)c(=O)c(C(=O)O)cn3-c2ccc(F)cc2)CC1 | 0.0714
76 | O=C(O)CCCC[C@@H]1SC[C@@H]2NC(=O)N[C@@H]21 | 0.0822
77 | COc1ccc(C(CN(C)C)C2(O)CCCCC2)cc1 (centres undefined) | 0.113
78 | CC(=O)SCC(Cc1ccccc1)C(=O)NCC(=O)OCc1ccccc1 (centres undefined) | 0.0732

Row | SMILES | fraction of eclosed F1 progeny that are homozygous ATM8
79 | C[C@H](CCC(=O)O)[C@H]1CC[C@H]2[C@@H]3CC[C@@H]4C[C@H](O)CC[C@]4(C)[C@H]3CC[C@]12C | 0.0741
80 | COC(=O)C1=C(C)NC(C)=C(C(=O)OC(C)C)C1c1cccc2nonc12 (centres undefined) | 0.0926
81 | CC1(C)CCC2=C(O1)c1ccccc1C(=O)C2=O [beta-LAPACHONE] | 0.389
82 | CC(=O)OCC[N+](C)(C)C | 0.0625
83 | O=C(O)c1nc2cc(Cl)c(Cl)cc2nc1O | 0
84 | CC(=O)O[C@H]1C[C@@H](OC(C)=O)C(C)(C)C2CC(=O)[C@]3(C)C(CC[C@@]4(C)[C@H](c5ccoc5)OC(=O)[C@H]5O[C@]543)[C@]21C (some centres undefined) | 0.0943
85 | OCCN1C[C@H](O)[C@@H](O)[C@H](O)[C@H]1CO | 0.154
86 | CC(C)C(=O)Nc1ccc([N+](=O)[O-])c(C(F)(F)F)c1 | 0.0645
87 | Cn1cnc([N+](=O)[O-])c1Sc1ncnc2[nH]cnc12 | 0.16
88 | COc1cc2c(cc1OC)-c1c(oc3c4c(ccc3c1=O)OC(C(C)C)C4)CO2 (centres undefined) | 0.122
89 | NCC[C@H](O)C(=O)N[C@@H]1C[C@H](N)[C@@H](O[C@H]2O[C@H](CN)[C@@H](O)[C@H](O)[C@H]2O)[C@H](O)[C@H]1O[C@H]1O[C@H](CO)[C@@H](O)[C@H](N)[C@H]1O | 0.114
90 | COc1ccc2c(c1)OC[C@@H](Cc1ccc(OC)c(OC)c1)[C@H]2O | 0.208
91 | Cc1cc2nc3c(=O)[nH]c(=O)nc-3n(CC(O)C(O)C(O)COP(=O)(O)O)c2cc1C (centres undefined) | 0.263
92 | COc1cc(/C=C/C(=O)CC(=O)/C=C/c2ccc(O)c(OC)c2)ccc1O | 0.25
93 | O=C(O)CSCC(=O)NC1CCSC1=O (centres undefined) | 0.0889
94 | CNC(=O)Oc1ccc2c(c1)[C@]1(C)CCN(C)[C@@H]1N2C | 0
95 | CC(C)=CCOc1cc2oc(=O)ccc2cc1O | 0.0789
96 | C/C=C1\[C@H]2C=C(C)C[C@]1(N)c1ccc(=O)[nH]c1C2 | 0.114
97 | C[N+](C)(C)CCO.[Cl-] | 0
98 | COc1cccc(-c2cc(=O)c3ccc(OC)cc3o2)c1 | 0.214
99 | CN1CCC(OC(c2ccccc2)c2ccccc2)CC1 | 0
100 | O=C(Oc1cccc2cccnc12)c1ccccc1 | 0
101 | CN(C)C(=O)Oc1cccc([N+](C)(C)C)c1 | 0.173
102 | CN1[C@H]2C[C@H](OC(=O)[C@H](CO)c3ccccc3)C[C@@H]1[C@@H](O)C2 | 0.211
103 | Cc1cc(O)c2c(c1)C(=O)c1cc(O)cc(O)c1C2=O | 0.0889
104 | Nc1nc(O)c2ncn(CCC(CO)CO)c2n1 | 0.176

Entries shown so far that contain an NH in an aromatic ring (six):
Row | SMILES | fraction of eclosed F1 progeny that are homozygous ATM8
3 | O=C(O)Cc1cnc[nH]1 | 0.0789
31 | CC(C)C[C@H]1C(=O)N2CCC[C@H]2[C@]2(O)O[C@](NC(=O)[C@@H]3C=C4c5cccc6[nH]c(Br)c(c56)C[C@H]4N(C)C3)(C(C)C)C(=O)N12 | 0.122
69 | Nc1nc2[nH]cc(CCc3ccc(C(=O)N[C@@H](CCC(=O)O)C(=O)O)cc3)c2c(=O)[nH]1 | 0.0909
87 | Cn1cnc([N+](=O)[O-])c1Sc1ncnc2[nH]cnc12 | 0.16
91 | Cc1cc2nc3c(=O)[nH]c(=O)nc-3n(CC(O)C(O)C(O)COP(=O)(O)O)c2cc1C (centres undefined) | 0.263
96 | C/C=C1\[C@H]2C=C(C)C[C@]1(N)c1ccc(=O)[nH]c1C2 | 0.114

Source: the supplement of paper PMC5770031
